According to PubChem BioAssay AID624297 (National Center for Advancing Translational Sciences (NCATS), 2012):
Out of some 340,000 compounds screened, about 6,200 (1.8%) were called active. Inconclusive results, whose numbers are uncertain, are shown with a selection of clear calls. Calls come from the whole dose curve; as a rule, active = well fitted activation curve with a large enough effect; inconclusive = small, poorly fitted or top-dose-only effect; inactive = no such curve, though single readings can be large or run the other way. Potencies beside an inconclusive call are fits to weak or partial responses and may not hold up.

Test: A quantitative high throughput screen for small molecules that induce DNA re-replication in SW480 colon adenocarcinoma cells. For re-replication activation: % of control where 0% means no effect. Note: nearly all actives have a fitted effect of over 55% in size.
Conditions: Hoechst DNA content imaging, 48 h; re-replication activation: at 46.1 µM (top of the series)
How it was run: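 Hoechst fluorescence of nuclei (405 nm excitation, 500-530 nm emission) measured by plate-scanning imager after 48 hr compound exposure at 37 C; re-replication scored as increased number of nuclei with elevated intensity.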
Potency is the fitted concentration of half-maximal effect.

Row | SMILES | Potency | re-replication activation
1 | COc1ccc(NC(=O)c2ccc(S(=O)(=O)N3CCCCCC3)cc2)c(OC)c1 | inconclusive: 23.1 µM [activator, single point] | 
2 | COc1ccc(C(C)(C)C)cc1NC(=O)CCN1C(=O)NC(C)(C)C1=O |  | inactive: 3.14%
3 | N#CC1CC(c2ccccc2)=NN1c1ccccc1[N+](=O)[O-] (stereo not given) | inconclusive: 14.6 µM [activator, single point] | 
4 | O=C(Nc1nccs1)c1ccc2ccccc2c1 | inconclusive: 29.1 µM [activator, single point] | 
5 | Cc1ccc(CCNC(=O)C2=CCN(S(=O)(=O)c3ccccc3)CC2)cc1 | inconclusive: 29.1 µM [activator, single point] | 
6 | O=C(CCC(=O)Nc1ccc(Cl)cc1Cl)N/N=C/c1ccc([N+](=O)[O-])o1 | active: 4.61 µM | 
7 | Cc1ccnc(NC(c2ccccc2)c2ccc3cccnc3c2O)c1 (stereo not given) | inconclusive: 29.1 µM [activator, single point] | 
8 | Cc1cc(OCCCC(=O)Nc2cc(S(=O)(=O)N3CCOCC3)ccc2N2CCOCC2)ccc1Cl |  | inactive: -0.175%
9 | Cc1ccc(/C=N/NC(=O)c2ccco2)s1 |  | inactive: -7.41%
10 | CC(C)(C)[C@H]1COC(=O)[C@@H](Cc2ccc(F)cc2)CC/C=C/C[C@@H](CC(=O)N[C@@H](CO)Cc2ccccc2)C(=O)N1 | inconclusive: 23.1 µM [activator, partial curve, poor fit] | 
11 | COC(=O)c1ccc(S(=O)(=O)N2CCCN(Cc3cccc(Br)c3F)CC2)n1C | inconclusive: 6.51 µM [activator, single point] | 
12 | Cc1ccsc1CN(C(=O)c1ccc([N+](=O)[O-])cc1)C1CCS(=O)(=O)C1 (stereo not given) |  | inactive: -9.96%
13 | COC(=S)Nc1cccc(C(F)(F)F)c1 |  | inactive: -14.8%
14 | COc1cc(C(C(=O)Nc2c(C)cccc2C)N(C)C(=O)c2ccc(-n3cnnn3)cc2)ccc1O (stereo not given) | inconclusive: 3.26 µM [activator, partial curve, poor fit] | 
15 | CCN(CC)c1ccc2c(Cl)c(Br)c(=O)oc2c1 | inconclusive: 25.9 µM [activator, single point] | 
16 | C=CCNC(=O)CSc1cc([N+](=O)[O-])cc(S(=O)(=O)Cc2ccccc2)c1 | inconclusive: 1.84 µM [activator, partial curve] | 
17 | O=C1CCN(Cc2ccccc2)CCN1CCOc1ccccc1 |  | inactive: -1.38%
18 | COC(=O)c1ccc(Cn2cc(Cl)cn2)cc1 |  | inactive: -6.47%
19 | C/C(=N/NC(=O)C(C)n1nc(C)c([N+](=O)[O-])c1C)c1ccc(OCC(N)=O)cc1 (stereo not given) | inconclusive: 14.6 µM [activator, partial curve, poor fit] | 
20 | COc1ccc(OC)c(Nc2nc(-c3ccccc3O)nc3ccccc23)c1 |  | inactive: -3.88%
21 | Cc1ccc(-c2nc(NC(=O)c3nn(C)cc3[N+](=O)[O-])sc2C)cc1C | active: 1.46 µM | 
22 | Cc1cccc(C2=NN(c3ccccc3)[C@H](CO)[C@H]2c2ccc(F)cc2)c1 | active: 5.17 µM | 
23 | Cc1ccc(N2CC(NS(=O)(=O)c3cc(F)ccc3F)CC2=O)cc1C (stereo not given) | inconclusive: 18.4 µM [activator, single point] | 

3 compounds out of the list, ordered by molar mass, descending:
Row | SMILES | Potency | re-replication activation
23 | Cc1ccc(N2CC(NS(=O)(=O)c3cc(F)ccc3F)CC2=O)cc1C (stereo not given) | inconclusive: 18.4 µM [activator, single point] | 
20 | COc1ccc(OC)c(Nc2nc(-c3ccccc3O)nc3ccccc23)c1 |  | inactive: -3.88%
13 | COC(=S)Nc1cccc(C(F)(F)F)c1 |  | inactive: -14.8%

More records:

Row | SMILES | Potency | re-replication activation
24 | O=C(N/N=C/c1ccncc1)c1ccccc1OCc1ccc(Br)cc1 | inconclusive: 29.1 µM [activator, single point] | 
25 | Cc1cc(Cn2nc(C(=O)NCc3cccc(Br)c3)cc2-c2ccccc2)on1 | inconclusive: 0.0046 µM [activator, full curve, poor fit] | 
26 | O=C(CCCC(=O)c1ccccc1)Nc1ccc(O)cc1 | inconclusive: 23.1 µM [activator, single point] | 
27 | COc1ccc(-c2cc3ccccc3[nH]2)cc1 | inconclusive: 0.0731 µM [activator, full curve, poor fit] | 
28 | COc1cccc(C(C#N)NCCCNC(C#N)c2cccc(OC)c2OC)c1OC (stereo not given) |  | inactive: -0.825%
29 | CCOC(=O)c1nnn(-c2ccc([N+](=O)[O-])cc2[N+](=O)[O-])c1C | active: 7.31 µM | 
30 | COC(=O)C(NC(=O)c1ccccc1)(Nc1nc(C)cs1)C(F)(F)F (stereo not given) | inconclusive: 29.1 µM [activator, partial curve, poor fit] | 
31 | C/C(=N\NC(=O)c1cc(-c2ccc(O)cc2)nc2ccccc12)c1cccnc1 | inconclusive: 29.1 µM [activator, single point] | 
32 | CC(C)(C)c1[nH]nc2c1C(c1ccco1)C(C#N)=C(N)O2 (stereo not given) | inconclusive: 16.4 µM [activator, single point] | 
33 | O=c1c(-c2ccccc2)c(O)cc(-c2ccncc2)n1-c1ccc(Cl)cc1 | inconclusive: 29.1 µM [activator, single point] | 
34 | O=C(c1ccco1)N1CCN(Cc2ccc(Cl)cc2)CC1 |  | inactive: -1.24%
35 | CN1C(=O)/C(=C/c2cccc(Cl)c2)Sc2ccc(C(=O)N3CCOCC3)cc21 | inconclusive: 3.26 µM [activator, partial curve, poor fit] | 
36 | C=CCc1cccc2cc(C(=O)NCc3cccnc3)c(=O)oc12 | inconclusive: 29.1 µM [activator, single point] | 
37 | CCN(Cc1nc2ccccc2c(=O)[nH]1)C(=O)c1cccc(S(=O)(=O)N2CCc3ccccc32)c1 |  | inactive: -2.56%
38 | CC(=Nc1ccc(Br)cc1)c1sc2ccccc2c1O |  | inactive: 0.978%
39 | CN(C)c1nc(OCCNC(=O)Nc2ccc(Cl)cc2)nc(N(C)C)n1 |  | inactive: 1.35%
40 | COc1ccc(CCNC(=O)c2ccccc2OCc2ccccc2)cc1 | inconclusive: 29.1 µM [activator, single point] | 
41 | Cc1cccc(OCCC(=O)Nc2ccc(N3CCOCC3)cc2N2CCOCC2)c1 |  | inactive: 0.451%
42 | O=C(NC(=S)Nc1ccc(N2CCOCC2)cc1)c1ccc(Cl)cc1 |  | inactive: 1.12%
43 | COc1cccc(CNC(=O)CNC(=O)N2CC(=O)Nc3ccccc32)c1 |  | inactive: -2.13%
44 | Cc1ccc(-c2nnn3c2nc(NC(C)C)c2ccccc23)cc1 | inconclusive: 10.3 µM [activator, partial curve, poor fit] | 
45 | C/C(CC(=O)Nc1ccc(Cl)c(C(F)(F)F)c1)=N\NC(=O)c1cc2ccccc2cc1O | inconclusive: 29.1 µM [activator, single point] | 
